No constants are given. Whether binding was seen depends on the method and setting. For some assays here: Binding seen in cells or lysates may run through a third protein. Some entries that bind do so weakly or less than the wild type. Tags and fused reporters may be left off the sequences shown.
T1: Biotinylated BRC5 peptide (BRCA2 amino acid residues 1661-1695) (human) (UniProt P51587)
T1 sequence (peptide, biotin (position not stated)): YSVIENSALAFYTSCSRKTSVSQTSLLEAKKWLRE

T2: GST-BRCA2 fragment (1613-1781) containing BRC5 repeat (human) (UniProt P51587)
T2 sequence: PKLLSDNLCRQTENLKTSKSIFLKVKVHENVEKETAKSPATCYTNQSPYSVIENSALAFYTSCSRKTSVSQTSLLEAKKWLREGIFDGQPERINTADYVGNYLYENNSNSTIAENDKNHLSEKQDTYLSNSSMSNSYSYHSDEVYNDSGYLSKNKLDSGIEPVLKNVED


Columns and labels:
[1] = molecular target: T1, Biotinylated BRC5 peptide (BRCA2 amino acid residues 1661-1695) (human); assay: pull-down; 1 nmol biotinylated BRC5 peptide on Dynabeads M-280 Streptavidin, 100 pmol purified HMG20b fragment; 50mM Tris-HCl pH 7.4, 150mM NaCl, 1% NP-40, 5mM EDTA, 10mM NaF, 0.1% BSA; 30 minutes at room temperature; Coomassie staining; both purified
[2] = molecular target: T2, GST-BRCA2 fragment (1613-1781) containing BRC5 repeat (human); assay: pull-down; GST-BRCA2 fragment on Glutathione Sepharose beads, 293T cell extracts expressing Flag-HMG20b; 50mM Tris-HCl pH 7.4, 300mM NaCl, 1% NP-40, 5mM EDTA, 10mM NaF, 0.1% BSA; 30 minutes at room temperature; anti-Flag western blot; only the target purified

binding [2]	Binder	binding [1]
	HMG20b fragment aa265-317 with C-terminal 6xHis tag (domain or fragment, UniProt Q9P0W2 265-317) SLPVPGTGETPTLGTLDFYMARLHGAIERDPAQHEKLIVRIKEILAQVASEHL	no binding (tested: 100 pmol fragment with 1 nmol peptide)
binds	full-length FLAG-HMG20b (wild type) (protein, UniProt Q9P0W2 1-317) MSHGPKQPGAAAAPAGGKAPGQHGGFVVTVKQERGEGPRAGEKGSHEEEPVKKRGWPKGKKRKKILPNGPKAPVTGYVRFLNERREQIRTRHPDLPFPEITKMLGAEWSKLQPTEKQRYLDEAEREKQQYMKELRAYQQSEAYKMCTEKIQEKKIKKEDSSSGLMNTLLNGHKGGDCDGFSTFDVPIFTEEFLDQNKAREAELRRLRKMNVAFEEQNAVLQRHTQSMSSARERLEQELALEERRTLALQQQLQAVRQALTASFASLPVPGTGETPTLGTLDFYMARLHGAIERDPAQHEKLIVRIKEILAQVASEHL	
